Test results taken from patent publication US20140343124A1 (ROYAL INSTITUTION FOR THE ADVANCEMENT OF LEARNING MCGILL …, published 2014).
No constants are given. Whether binding was seen depends on the method and setting. For some of these results: In cells and extracts the contact can be indirect. Some binding calls cover weakened binding; strength is not graded here. For some of these results: Sequences can lack the tags named with a protein.

T1: MYC-LC2 (UniProt P78559 2567-2803, limits assumed)
T1 construct: domain: light chain (LC2) subunit; also called LC2 (heterologously expressed, MYC-tagged); not shown: MYC tag
T1 sequence (looked up): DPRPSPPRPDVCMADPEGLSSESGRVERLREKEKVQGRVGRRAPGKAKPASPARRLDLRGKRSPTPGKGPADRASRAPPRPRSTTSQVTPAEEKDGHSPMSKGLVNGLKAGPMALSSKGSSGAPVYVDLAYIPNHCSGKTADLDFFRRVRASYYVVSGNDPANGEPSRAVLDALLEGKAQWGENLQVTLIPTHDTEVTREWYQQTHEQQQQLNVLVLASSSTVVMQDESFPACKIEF


Tests used:
[1] = target: light chain (LC2) subunit of MAP1A (human) (UniProt P78559); assay: yeast two-hybrid screen, full-length DRR as bait, human brain cDNA library
MYC-LC2 [2] = target: T1, MYC-LC2; assay: co-localisation and co-immunoprecipitation of heterologously expressed tagged proteins
MYC-LC2 [3] = target: T1, MYC-LC2; assay: co-immunoprecipitation of heterologously expressed tagged proteins

| binding [1] | binding (MYC-LC2 [2]) | binding (MYC-LC2 [3]) | Binder |
| --- | --- | --- | --- |
| binds | – | – | downregulated in renal cell carcinoma (DRR), human, full-length (protein, UniProt O95990 1-144, looked up) MYSEIQRERADIGGLMARPEYREWNPELIKPKKLLNPVKASRSHQELHRELLMNHRRGLGVDSKPELQRVLEHRRRNQLIKKKKEELEAKRLQCPFEQELLRRQQRLNQLEKPPEKEEDHAPEFIKVRENLRRIATLTSEEREL |
| – | binds | binds | FLAG-DRR (protein, UniProt O95990 1-144, looked up, not shown: small tags and cut ends) MYSEIQRERADIGGLMARPEYREWNPELIKPKKLLNPVKASRSHQELHRELLMNHRRGLGVDSKPELQRVLEHRRRNQLIKKKKEELEAKRLQCPFEQELLRRQQRLNQLEKPPEKEEDHAPEFIKVRENLRRIATLTSEEREL |
| – | – | binds | FLAG-DRR^ΔPEPE (protein, UniProt O95990 1-144, looked up, not shown: small tags and cut ends) MYSEIQRERADIGGLMARPEYREWNPELIKPKKLLNPVKASRSHQELHRELLMNHRRGLGVDSKAALQRVLEHRRRNQLIKKKKEELEAKRLQCPFEQELLRRQQRLNQLEKPAAKEEDHAPEFIKVRENLRRIATLTSEEREL |
